Paper PMC8766458, “Deciphering the mechanism of processive ssDNA digestion by the Dna2-RPA ensemble” (Nature Communications, 2022)
No constants are given. Whether binding was seen depends on the method and setting.

By UniProt entry, the sequences of proteins in these tests, tags left out. Where a name states a change or a piece, a line headed by the entry shows the natural chain unless it says otherwise.
UniProt P26754: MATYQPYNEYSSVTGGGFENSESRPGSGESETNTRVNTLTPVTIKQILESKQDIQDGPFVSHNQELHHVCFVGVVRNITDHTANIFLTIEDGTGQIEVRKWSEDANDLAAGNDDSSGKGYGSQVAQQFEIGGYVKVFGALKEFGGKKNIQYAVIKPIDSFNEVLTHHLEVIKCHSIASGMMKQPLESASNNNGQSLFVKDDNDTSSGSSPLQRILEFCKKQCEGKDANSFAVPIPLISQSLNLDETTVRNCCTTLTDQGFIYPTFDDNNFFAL
UniProt P26755: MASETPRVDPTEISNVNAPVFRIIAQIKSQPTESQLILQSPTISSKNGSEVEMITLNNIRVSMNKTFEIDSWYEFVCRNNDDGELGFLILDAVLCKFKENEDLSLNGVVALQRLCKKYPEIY

T1: dna2–∆501N–D657A (S. cerevisiae) (UniProt P38859)
T1 sequence: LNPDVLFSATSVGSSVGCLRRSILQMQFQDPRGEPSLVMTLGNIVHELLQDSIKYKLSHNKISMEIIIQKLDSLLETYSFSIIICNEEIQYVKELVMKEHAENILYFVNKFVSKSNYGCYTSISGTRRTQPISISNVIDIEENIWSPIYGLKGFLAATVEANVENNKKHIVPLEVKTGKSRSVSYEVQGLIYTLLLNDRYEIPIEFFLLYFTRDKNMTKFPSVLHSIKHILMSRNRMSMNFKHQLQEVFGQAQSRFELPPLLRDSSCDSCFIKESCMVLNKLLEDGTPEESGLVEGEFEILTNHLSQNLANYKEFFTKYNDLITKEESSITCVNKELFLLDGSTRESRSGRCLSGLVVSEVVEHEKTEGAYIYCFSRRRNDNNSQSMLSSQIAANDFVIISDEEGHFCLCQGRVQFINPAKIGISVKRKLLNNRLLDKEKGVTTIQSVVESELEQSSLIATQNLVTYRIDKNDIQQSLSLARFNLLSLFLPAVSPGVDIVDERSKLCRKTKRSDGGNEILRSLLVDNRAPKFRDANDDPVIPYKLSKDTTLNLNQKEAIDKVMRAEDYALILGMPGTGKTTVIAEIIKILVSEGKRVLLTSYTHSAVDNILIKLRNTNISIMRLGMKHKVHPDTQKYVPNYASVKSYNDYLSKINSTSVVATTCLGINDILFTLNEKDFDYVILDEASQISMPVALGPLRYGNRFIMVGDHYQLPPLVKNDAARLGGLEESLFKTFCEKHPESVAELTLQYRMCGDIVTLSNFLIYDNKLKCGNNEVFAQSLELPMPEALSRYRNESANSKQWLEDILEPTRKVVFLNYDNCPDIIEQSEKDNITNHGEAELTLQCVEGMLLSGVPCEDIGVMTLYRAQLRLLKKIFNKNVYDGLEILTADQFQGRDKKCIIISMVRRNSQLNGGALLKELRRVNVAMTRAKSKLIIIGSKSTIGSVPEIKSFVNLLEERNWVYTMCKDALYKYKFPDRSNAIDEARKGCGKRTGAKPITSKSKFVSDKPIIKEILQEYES

B1: Rfa1-N-DBD-A/B (Rfa1–NAB, amino acid 1–435) (domain or fragment, yeast (S. cerevisiae), UniProt P22336 1-435, looked up)
chain: MSSVQLSRGDFHSIFTNKQRYDNPTGGVYQVYNTRKSDGANSNRKNLIMISDGIYHMKALLRNQAASKFQSMELQRGDIIRVIIAEPAIVRERKKYVLLVDDFELVQSRADMVNQTSTFLDNYFSEHPNETLKDEDITDSGNVANQTNASNAGVPDMLHSNSNLNANERKFANENPNSQKTRPIFAIEQLSPYQNVWTIKARVSYKGEIKTWHNQRGDGKLFNVNFLDTSGEIRATAFNDFATKFNEILQEGKVYYVSKAKLQPAKPQFTNLTHPYELNLDRDTVIEECFDESNVPKTHFNFIKLDAIQNQEVNSNVDVLGIIQTINPHFELTSRAGKKFDRRDITIVDDSGFSISVGLWNQQALDFNLPEGSVAAIKGVRVTDFGGKSLSMGFSSTLIPNPEIPEAYALKGWYDSKGRNANFITLKQEPGMGGQ
notes: Rfa1 of yeast RPA, residues 1-435 (N, DBD-A and DBD-B domains); The 6xHis tag can optionally be removed by TEV protease; also called NAB polypeptide; pHis–Rfa1 1–435; source: E. coli BL21 codon plus, purified (Ni-NTA, Superdex 200)
B2: Dna2 (wild type, FLAG-His6-tagged) (enzyme, S. cerevisiae, UniProt P38859 1-1522, looked up)
chain: MPGTPQKNKRSASISVSPAKKTEEKEIIQNDSKAILSKQTKRKKKYAFAPINNLNGKNTKVSNASVLKSIAVSQVRNTSRTKDINKAVSKSVKQLPNSQVKPKREMSNLSRHHDFTQDEDGPMEEVIWKYSPLQRDMSDKTTSAAEYSDDYEDVQNPSSTPIVPNRLKTVLSFTNIQVPNADVNQLIQENGNEQVRPKPAEISTRESLRNIDDILDDIEGDLTIKPTITKFSDLPSSPIKAPNVEKKAEVNAEEVDKMDSTGDSNDGDDSLIDILTQKYVEKRKSESQITIQGNTNQKSGAQESCGKNDNTKSRGEIEDHENVDNQAKTGNAFYENEEDSNCQRIKKNEKIEYNSSDEFSDDSLIELLNETQTQVEPNTIEQDLDKVEKMVSDDLRIATDSTLSAYALRAKSGAPRDGVVRLVIVSLRSVELPKIGTQKILECIDGKGEQSSVVVRHPWVYLEFEVGDVIHIIEGKNIENKRLLSDDKNPKTQLANDNLLVLNPDVLFSATSVGSSVGCLRRSILQMQFQDPRGEPSLVMTLGNIVHELLQDSIKYKLSHNKISMEIIIQKLDSLLETYSFSIIICNEEIQYVKELVMKEHAENILYFVNKFVSKSNYGCYTSISGTRRTQPISISNVIDIEENIWSPIYGLKGFLDATVEANVENNKKHIVPLEVKTGKSRSVSYEVQGLIYTLLLNDRYEIPIEFFLLYFTRDKNMTKFPSVLHSIKHILMSRNRMSMNFKHQLQEVFGQAQSRFELPPLLRDSSCDSCFIKESCMVLNKLLEDGTPEESGLVEGEFEILTNHLSQNLANYKEFFTKYNDLITKEESSITCVNKELFLLDGSTRESRSGRCLSGLVVSEVVEHEKTEGAYIYCFSRRRNDNNSQSMLSSQIAANDFVIISDEEGHFCLCQGRVQFINPAKIGISVKRKLLNNRLLDKEKGVTTIQSVVESELEQSSLIATQNLVTYRIDKNDIQQSLSLARFNLLSLFLPAVSPGVDIVDERSKLCRKTKRSDGGNEILRSLLVDNRAPKFRDANDDPVIPYKLSKDTTLNLNQKEAIDKVMRAEDYALILGMPGTGKTTVIAEIIKILVSEGKRVLLTSYTHSAVDNILIKLRNTNISIMRLGMKHKVHPDTQKYVPNYASVKSYNDYLSKINSTSVVATTCLGINDILFTLNEKDFDYVILDEASQISMPVALGPLRYGNRFIMVGDHYQLPPLVKNDAARLGGLEESLFKTFCEKHPESVAELTLQYRMCGDIVTLSNFLIYDNKLKCGNNEVFAQSLELPMPEALSRYRNESANSKQWLEDILEPTRKVVFLNYDNCPDIIEQSEKDNITNHGEAELTLQCVEGMLLSGVPCEDIGVMTLYRAQLRLLKKIFNKNVYDGLEILTADQFQGRDKKCIIISMVRRNSQLNGGALLKELRRVNVAMTRAKSKLIIIGSKSTIGSVPEIKSFVNLLEERNWVYTMCKDALYKYKFPDRSNAIDEARKGCGKRTGAKPITSKSKFVSDKPIIKEILQEYES
notes: Dna2 nuclease-helicase, Saccharomyces cerevisiae, wild type; Wild-type protein; In DNA Curtains it was labelled with anti-FLAG quantum dots; in MST with the His-tag labelling kit RED-tris-NTA; also called wild-type Dna2; (His)6-tagged Dna2; source: over-expressed in yeast, purified (Ni-NTA, anti-FLAG-M2 resin)

What was measured:
[1] = biological target: T2, dna2-D657A (nuclease-dead Dna2) (S. cerevisiae, UniProt P38859 1-1522, D657A); experiment: native gel or EMSA; ternary complex of dna2-D657A variants (20 nM), Rfa1 truncations or mutants (20 nM) and 5 nM dT(20) ssDNA; 150 mM KCl, 30 °C, 4% native gel; both purified
T2 construct: Dna2, Saccharomyces cerevisiae, nuclease-dead version; Purified as the other Dna2 variants; FLAG tag used for quantum-dot labelling in DNA Curtains; also called dna2-D657A mutant; source: over-expressed in yeast, purified (Ni-NTA, anti-FLAG-M2 resin)

[2] = biological target: T1, dna2–∆501N–D657A (S. cerevisiae); experiment: as above
[3] = biological target: RPA–∆N–GFP (yeast (S. cerevisiae)) (UniProt P22336+P26754+P26755); experiment: single-molecule DNA Curtains (TIRF microscopy); quantum-dot (anti-FLAG) labelled Dna2 variants (2 nM) flowed over ssDNA with a free 5′-end coated with RPA–GFP or RPA–∆N–GFP; 0.1 nM free RPA–GFP in the buffer, 50 mM NaCl, 20 mM Tris-HCl pH 7.5, 2 mM MgCl2, 30 °C; both purified

| Molecule | binding [1] | further results |
| --- | --- | --- |
| Rfa1-N (amino acid 1–180) (from UniProt P22336 1-180) (domain or fragment) | no binding |  |
| Rfa1-N-DBD-A (amino acid 1-299) (from UniProt P22336 1-299) (domain or fragment) | no binding |  |
| B1 |  | binding [2]: no binding |
| B2 |  | binding [3]: no binding (tested: 2 nM Dna2) |
